Data on one molecule can be found in paper doi:10.1101/2023.02.11.528118.

Protein sequences, listed by entry. Tags and fused reporters are not part of them.
UniProt Q4J6C6: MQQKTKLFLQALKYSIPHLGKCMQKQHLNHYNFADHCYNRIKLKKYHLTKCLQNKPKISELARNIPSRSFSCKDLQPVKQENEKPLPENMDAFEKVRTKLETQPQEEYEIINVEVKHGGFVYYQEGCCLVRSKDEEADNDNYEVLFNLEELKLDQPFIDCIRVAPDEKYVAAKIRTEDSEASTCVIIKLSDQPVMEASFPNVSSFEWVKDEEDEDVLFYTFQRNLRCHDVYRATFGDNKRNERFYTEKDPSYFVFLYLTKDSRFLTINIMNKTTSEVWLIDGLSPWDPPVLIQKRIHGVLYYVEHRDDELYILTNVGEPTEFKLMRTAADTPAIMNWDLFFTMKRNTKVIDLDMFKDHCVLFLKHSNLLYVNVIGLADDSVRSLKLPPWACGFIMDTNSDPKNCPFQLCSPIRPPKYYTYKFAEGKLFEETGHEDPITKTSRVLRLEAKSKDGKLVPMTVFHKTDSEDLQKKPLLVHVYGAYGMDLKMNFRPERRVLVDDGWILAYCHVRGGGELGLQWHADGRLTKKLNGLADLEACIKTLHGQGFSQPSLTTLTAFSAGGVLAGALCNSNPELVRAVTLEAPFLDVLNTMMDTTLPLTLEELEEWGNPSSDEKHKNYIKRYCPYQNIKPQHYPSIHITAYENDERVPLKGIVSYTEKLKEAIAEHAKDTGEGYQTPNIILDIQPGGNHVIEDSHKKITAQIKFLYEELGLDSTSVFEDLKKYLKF

The target in this experiment is PREPL(L)-Flag (prolyl-endopeptidase like, long mitochondrial isoform, Flag-tagged) (human) (UniProt Q4J6C6). Briefly: co-IP.

No constants are given. Whether binding was seen depends on the method and setting. Binding seen in cells or lysates may run through a third protein. Some entries that bind do so weakly or less than the wild type.

B1: FASTKD4 (protein, UniProt Q969Z0 108-631)
chain: SHLLSEKPEDKGLLIQDAHFHQLLCLLNSQIASVWHGTLSKLLGSLYALGIPKASKELQSVEQEVRWRMRKLKYKHLAFLAESCATLSQEQHSQELLAELLTHLERRWTEIEDSHTLVTVMMKVGHLSEPLMNRLEDKCLELVEHFGPNELRKVLVMLAAQSRRSVPLLRAISYHLVQKPFSLTKDVLLDVAYAYGKLSFHQTQVSQRLATDLLSLMPSLTSGEVAHCAKSFALLKWLSLPLFEAFAQHVLNRAQDITLPHLCSVLLAFARLNFHPDQEDQFFSLVHEKLGSELPGLEPALQVDLVWALCVLQQAREAELQAVLHPEFHIQFLGGKSQKDQNTFQKLLHINATALLEYPEYSGPLLPASAVAPGPSALDRKVTPLQKELQETLKGLLGSADKGSLEVATQYGWVLDAEVLLDSDGEFLPVRDFVAPHLAQPTGSQSPPPGSKRLAFLRWEFPNFNSRSKDLLGRFVLARRHIVAAGFLIVDVPFYEWLELKSEWQKGAYLKDKMRKAVAEELAK
With B1, the binding result is “binds”.
